Values from PubChem BioAssay AID1224828 (NIAID, 2016)
This is one part, drawn at random, of about 17,000 deposited reagents. Of all reagents, 762 (4.5%) are marked active. 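Active calls include both raised and lowered p65 entry, mostly lowered; wells with fewer than 50 cells lack a z-score.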 Raw values are not corrected between plates. A number with no mark means an inactive call. No sequences are given here.

Assay: 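Regulators linking TLR4 signalling to p65 nuclear translocation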 (primary screen)
Cell system: mouse RAW264.7 G9 macrophage reporter cells (GFP-p65, Tnf promoter-mCherry)
Reagent: siRNA pool against mouse genes, 100 nM
Timing: 2 days siRNA transfection, then 40 min LPS before fixation
Treatment: LPS (Salmonella minnesota R595) at 10 ng/ml
Measured: 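Imaged p65 nuclear translocation ratio, normalised to the plate median, converted to robust z-scores and averaged across two replicates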
Direction: p65 translocation robust z-score: higher = more nuclear NF-kappaB p65 after LPS than the plate median; nuclear/cytoplasmic p65 ratio: higher = more nuclear NF-kappaB p65
Active means: 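Active if robust z is above 3.3 (negative regulators) or below -1.56, the Tlr4 control median (positive regulators); activity score 50 or more; control wells not called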
Meaning of the calls: active = hit (p65 shift raised or lowered); inactive = no clear change

Gene | p65 translocation robust z-score | nuclear/cytoplasmic p65 ratio, rep 1 | nuclear/cytoplasmic p65 ratio, rep 2 | low cell count flag
Spon1 | 2.4 | 1.78 | 1.47 | enough cells to score
Dnaaf2 | -0.13 | 1.45 | 1.5 | enough cells to score
Rad51b | -0.45 | 1.36 | 1.13 | enough cells to score
Dexi | 0.55 | 1.71 | 1.57 | enough cells to score
4933405O20Rik | -0.03 | 1.26 | 1.12 | enough cells to score
Or1f19 | -0.47 | 1.49 | 1.4 | enough cells to score
Ddi2 | -0.31 | 1.35 | 1.45 | enough cells to score
Asah2 | -1.09 | 1.36 | 1.44 | enough cells to score
Ska3 | 0.38 | 1.36 | 1.4 | enough cells to score
Dct | 0.19 | 1.36 | 1.38 | enough cells to score
Taar9 | 0.74 | 1.59 | 1.72 | enough cells to score
Pth2 | 1.16 | 1.49 | 1.34 | enough cells to score

Copied from the list:
Under “p65 translocation robust z-score”, 4933405O20Rik is entered as -0.03
For “nuclear/cytoplasmic p65 ratio, rep 2”, Dct has 1.38

The results go on.
Gene | p65 translocation robust z-score | nuclear/cytoplasmic p65 ratio, rep 1 | nuclear/cytoplasmic p65 ratio, rep 2 | low cell count flag
Hnf1a | -0.52 | 1.48 | 1.41 | enough cells to score
Haus6 | 1.19 | 1.47 | 1.66 | enough cells to score
Or52n2c | -1.4 | 1.29 | 1.11 | enough cells to score
Mill1 | 0.42 | 1.87 | 1.53 | enough cells to score
Lrrtm4 | -1.31 | 1.52 | 1.13 | enough cells to score
Krt15 | -0.13 | 1.59 | 1.25 | enough cells to score
Sgcg | -0.49 | 1.41 | 1.55 | enough cells to score
Ubxn8 | 0.22 | 1.6 | 1.82 | enough cells to score
Fbxo7 | -0.25 | 1.45 | 1.32 | enough cells to score
Grpel2 | 0.85 | 1.69 | 1.68 | enough cells to score
Pcdhga2 | 1.49 | 1.63 | 1.43 | enough cells to score
Fat1 | 0.9 | 1.64 | 1.47 | enough cells to score
